Results on two molecules are retold here after paper doi:10.1101/778779.

Amino acid sequences for entries named in this document (tags omitted). A change or cut given only in a name is not applied to a line headed by its entry.
UniProt O96013: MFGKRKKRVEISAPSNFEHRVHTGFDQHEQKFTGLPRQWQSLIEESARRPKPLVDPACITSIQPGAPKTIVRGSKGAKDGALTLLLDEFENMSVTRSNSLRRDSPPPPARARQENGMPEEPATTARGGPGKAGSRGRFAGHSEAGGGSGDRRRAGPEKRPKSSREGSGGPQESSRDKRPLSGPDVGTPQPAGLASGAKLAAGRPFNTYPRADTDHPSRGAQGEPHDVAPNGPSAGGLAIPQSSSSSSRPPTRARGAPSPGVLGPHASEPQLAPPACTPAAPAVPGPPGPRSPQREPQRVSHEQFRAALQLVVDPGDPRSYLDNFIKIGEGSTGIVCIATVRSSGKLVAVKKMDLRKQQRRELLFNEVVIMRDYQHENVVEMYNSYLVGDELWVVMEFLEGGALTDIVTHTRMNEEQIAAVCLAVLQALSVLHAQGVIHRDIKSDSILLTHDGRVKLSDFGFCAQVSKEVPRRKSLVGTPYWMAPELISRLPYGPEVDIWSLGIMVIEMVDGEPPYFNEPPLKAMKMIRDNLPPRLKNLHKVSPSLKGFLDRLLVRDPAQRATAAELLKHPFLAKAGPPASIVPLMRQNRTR

Holding throughout (assay): iBox-PAK4cat in-cellulo crystal assay
Assay [1] has as its target T1, iBox-PAK4cat-DTRL (UniProt Q96EL1).
T1 sequence: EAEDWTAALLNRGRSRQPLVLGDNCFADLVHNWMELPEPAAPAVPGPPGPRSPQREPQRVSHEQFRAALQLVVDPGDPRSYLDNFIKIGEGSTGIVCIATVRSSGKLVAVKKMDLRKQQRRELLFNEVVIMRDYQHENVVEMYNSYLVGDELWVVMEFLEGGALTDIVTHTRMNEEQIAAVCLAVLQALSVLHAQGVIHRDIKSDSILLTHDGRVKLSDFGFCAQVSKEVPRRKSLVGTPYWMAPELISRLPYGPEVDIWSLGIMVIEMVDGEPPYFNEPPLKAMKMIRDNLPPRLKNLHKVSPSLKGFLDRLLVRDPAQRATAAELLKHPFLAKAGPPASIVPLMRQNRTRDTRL

Assay [2] deals with T2, iBox-PAK4cat-AAAA (human) (UniProt Q96EL1+O96013).
T2 sequence: T1 sequence with D353A, T354A, R355A, L356A

For assay [3], the target named is T3, iBox-PAK4cat-DTAL (UniProt Q96EL1).
T3 sequence: T1 sequence with R355A

Assay [4] concerns the target T4, iBox-PAK4cat-DERL (UniProt Q96EL1).
T4 sequence: T1 sequence with T354E

The target in assay [5] is T5, iBox-PAK4cat-DARL (UniProt Q96EL1).
T5 sequence: T1 sequence with T354A

Assay [6] deals with T6, iBox-PAK4cat-DTRA (UniProt Q96EL1).
T6 sequence: T1 sequence with L356A

Assay [7] deals with T7, iBox-PAK4cat-ATRL (UniProt Q96EL1).
T7 sequence: T1 sequence with D353A

In assay [8] the target is T1, iBox-PAK4cat-DTRL. The source holds these as a separate data set.
The target of assay [9] is T3, iBox-PAK4cat-DTAL. The source holds these as a separate data set.
The target in assay [10] is T4, iBox-PAK4cat-DERL. This is another data set of the same source.
For assay [11], the target named is T5, iBox-PAK4cat-DARL. This is another data set of the same source.
For assay [12], the target named is T6, iBox-PAK4cat-DTRA. The source holds these as a separate data set.
Assay [13] deals with T7, iBox-PAK4cat-ATRL. This is another data set of the same source.

Changes are numbered by the printed parent chain. Read-outs that look alike come from different tables or passages of the source. Results are given in words; binding and its absence hold for the method and conditions named. Some entries that bind do so weakly or less than the wild type. Sequences can lack the tags named with a protein.

B1: GFP-NHERF1PDZ1 (NHERF1 residues 11-120) (domain or fragment, UniProt O14745 11-120)
chain: LPRLCCLEKGPNGYGFHLHGEKGKLGQYIRLVEPGSPAEKAGLLAGDRLVEVNGENVEKETHQQVVSRIRAALNAVRLLVVDPETDEQLQKLGVQVREELLRAQEAPGQA
Consider B1, for which the binding entry is “binds” in assay [1]; “no binding” in [2]; “binds” in [3]; “binds” in assay [4]; “binds” in assay [5]; “no binding” in [6]. In addition, the binding entry in assay [7] was “binds”; in [8], “binds”; in assay [9], “binds”; in assay [10], “binds”; in [11], “binds”; in [12], “no binding”. The binding result in assay [13] is “binds”.

B2: GFP-NHERF1PDZ2 (NHERF1 residues 150-270) (domain or fragment, UniProt O14745 150-270)
chain: LRPRLCTMKKGPSGYGFNLHSDKSKPGQFIRSVDPDSPAEASGLRAQDRIVEVNGVCMEGKQHGDVVSAIRAGGDETKLLVVDRETDEFFKKCRVIPSQEHLNGPLPVPFTNGEIQKENSR
Turning to B2, the binding result is “binds” in assay [1]; “no binding” in assay [2]; “binds” in assay [3]; “binds” in assay [4]; “binds” in assay [5]; “no binding” in assay [6]. Moreover, the binding entry in assay [7] was “binds”; in assay [8], “binds”; in assay [9] it was “binds”; in [10] it was “binds”; in assay [11], “binds”; in assay [12], “no binding”. The binding result in assay [13] is “binds”.
